{"source": "PubChem BioAssay AID540256", "about": "(National Center for Advancing Translational Sciences (NCATS), 2011)", "note": "The campaign covered roughly 300,000 compounds. About 3,700 (1.2%) were called active. The shares of active, inactive and inconclusive entries below differ from those in the screen. Calls come from the whole dose curve; tested in HEK293 cells. Potencies beside an inconclusive call are fits to weak or partial responses and may not hold up. % is set by controls: 0 for no effect and ±100 for the full control effect; potency is the fitted concentration of half-maximal effect."}
{"assay": "qHTS for Inhibitors of binding or entry into cells for Lassa Virus; note: nearly all actives have a fitted effect of over 50% in size", "conditions": "Lassa virus pseudotype entry inhibition, cell reporter; activity change, negative = inhibition: at 37.9 µM (top of the series) unless noted"}
{"smiles": "CC1=Nc2ccccc2N=C(N)C1c1ccccc1", "note": "(configuration not stated)", "Potency": "inconclusive: 20 µM [inhibitor, single point]"}
{"smiles": "CC(=O)N1CCCc2cc(S(=O)(=O)N3CCN(c4ccccc4F)CC3)ccc21", "Potency": "inactive"}
{"smiles": "O=c1cc(-c2ccncc2)oc2c1ccc1ccccc12", "Potency": "inactive"}
{"smiles": "CC(=C/c1ccccc1)/C=N/NC(=O)c1cc(C)oc1C", "Potency": "inconclusive: 22.4 µM [inhibitor, single point]"}
{"smiles": "CCOC(CNC(=O)c1cc2c(=O)n(CC)c3ccccc3c2s1)OCC", "Potency": "inconclusive: 31.6 µM [activator, single point]"}
{"smiles": "COc1cccc(OCc2cc(C(=O)N(C)CCC3CCCCO3)no2)c1", "note": "(configuration not stated)", "Potency": "inactive"}
{"smiles": "O=C(Nc1ccccc1Oc1ccccc1)c1ccc(Br)o1", "Potency": "inconclusive: 35.5 µM [inhibitor, partial curve, poor fit]"}
{"smiles": "COc1ccc2c(c1)c(C(=O)CNc1nc(C)cs1)c(C)n2C", "Potency": "inactive"}
{"smiles": "COc1ccc(NC(=O)CSc2ncc(-c3ccc(F)cc3)n2Cc2ccco2)cc1", "Potency": "inconclusive: 8.91 µM [inhibitor, partial curve, poor fit]"}
{"smiles": "Cc1ccc(NC(=O)N2CCCC2C(=O)NCC2CCCCC2)cc1", "note": "(configuration not stated)", "Potency": "inconclusive: 4.47 µM [inhibitor, partial curve, poor fit]"}
{"smiles": "CNC(=O)C1CC(=O)N(Cc2ccccc2)C(=Nc2ccc(OC)cc2)S1", "note": "(configuration not stated)", "Potency": "inactive"}
{"smiles": "Cc1cc(Br)ccc1NC(=O)CN(C)C(=O)COc1cccc2c1OC(C)(C)C2", "activity change, negative = inhibition": "inconclusive: 8.7% [activator]"}
{"smiles": "CC(=O)c1ccc(-c2nc3c4ccccc4ccn3c2C(C)=O)o1", "Potency": "active: 1.26 µM"}
{"smiles": "CC(C)CCNC(=O)c1ccc2c(c1)NC(=O)C(C(C)C)N2", "note": "(configuration not stated)", "Potency": "inactive"}
{"smiles": "CC(=O)Nc1ccc(SC(Sc2ccc(NC(C)=O)cc2)c2ccccc2)cc1", "Potency": "inconclusive: 5.62 µM [inhibitor, full curve, poor fit]"}
{"smiles": "Cc1ccc(C(=O)Cn2c(C(=O)OCCO)cc3ccccc32)cc1", "Potency": "inconclusive: 0.562 µM [inhibitor, full curve, poor fit]"}
{"smiles": "O=P(O)(O)c1ccccc1OCCOCCOCCOCCOc1ccccc1P(=O)(O)O", "Potency": "inconclusive: 3.55 µM [activator, full curve, poor fit]"}
{"smiles": "CCOc1ccc(Oc2ccccc2NC(=O)CSCC(=O)Nc2cc(C)on2)cc1", "Potency": "inconclusive: 25.1 µM [inhibitor, single point]"}
{"smiles": "NC(=O)NC(CC(=O)NCCc1ccccn1)c1ccccc1Cl", "note": "(configuration not stated)", "Potency": "inconclusive: 10 µM [activator, single point]"}
{"smiles": "CCOC(=O)C(C)Oc1c(C(=O)OC)sc2ncccc12", "note": "(configuration not stated)", "Potency": "inconclusive: 15.8 µM [activator, partial curve, poor fit]"}
{"smiles": "Cc1nn(-c2ccccc2)c(Cl)c1/C=N/NC(=O)c1ccccc1F", "Potency": "inconclusive: 35.5 µM [inhibitor, single point]"}
{"smiles": "CCOc1ccc(CCNC(=O)c2cc3c(=O)n(CC)c4ccccc4c3s2)cc1OCC", "Potency": "inactive"}
{"smiles": "CCOC(=O)N1CCC(NC(=O)c2ccc3c(c2)N=C(CC)c2cc(C)ccc2S3)CC1", "Potency": "inconclusive: 2.82 µM [inhibitor, partial curve, poor fit]"}
{"smiles": "COc1cccc2c1C(CCCC(=O)O)CCC2", "note": "(configuration not stated)", "Potency": "inconclusive: 11.2 µM [activator, single point]"}
{"smiles": "CC(C)(C)C(=O)N1CCc2cc(-c3csc(N)n3)ccc21", "Potency": "active: 2 µM"}
{"smiles": "CC1CCCCC12NC(=O)N(CC(=O)Nc1ccc(N3CCCCC3)cc1)C2=O", "note": "(configuration not stated)", "Potency": "inconclusive: 8.91 µM [inhibitor, partial curve, poor fit]"}
{"smiles": "Cc1ccc(C)c(NC(=O)Cn2nc(C)c3nn(-c4ccc(Cl)cc4)c(C)c3c2=O)c1", "Potency": "inconclusive: 6.31 µM [inhibitor, single point]"}
{"smiles": "COc1cc2[nH]c(=O)n(Cc3ccc(C(=O)N4CCN(c5ccc(Cl)cc5)CC4)cc3)c(=O)c2cc1OC", "Potency": "inactive"}
{"smiles": "O=C(NCC1CCCO1)c1cc2ccccc2[nH]1", "note": "(configuration not stated)", "Potency": "inconclusive: 11.2 µM [activator, partial curve, poor fit]"}
{"smiles": "Cc1ccc(C(=O)NC2CCCc3ccccc32)cc1[N+](=O)[O-]", "note": "(configuration not stated)", "Potency": "inconclusive: 7.08 µM [inhibitor, partial curve, poor fit]"}
{"smiles": "CC(C)CCn1c(N2CCN(c3cccc(Cl)c3)CC2)nc2c1c(=O)[nH]c(=O)n2C", "Potency": "inconclusive: 13 µM [inhibitor, partial curve, poor fit]"}
{"smiles": "CCn1nc(C)c(NC(=O)c2cc(Br)ccc2Cl)c1C", "Potency": "inconclusive: 0.092 µM [activator, full curve, poor fit]"}
{"smiles": "CCOC(=O)c1ccc(S(=O)(=O)Nc2ccc3cn[nH]c3c2)cc1", "Potency": "inconclusive: 11.6 µM [inhibitor, partial curve]"}
{"smiles": "O=C(Nc1cccc(-c2nc3ncccc3o2)c1)c1sc2ccccc2c1Cl", "Potency": "inconclusive: 29.1 µM [inhibitor, single point]"}
{"smiles": "CCOc1ccc(CCNC(=O)Cn2c(-c3cccs3)cc3cc(F)ccc32)cc1OCC", "Potency": "active: 11.2 µM"}
{"smiles": "COc1cc(/C=C/C(=O)OCC(=O)NC(=O)NC(C)C)cc(S(=O)(=O)N2CCc3ccccc32)c1OC", "Potency": "inconclusive: 31.6 µM [inhibitor, single point]"}
{"smiles": "CCOC(=O)c1ccccc1NC(=O)COC(=O)c1cc([N+](=O)[O-])ccc1N1CCOCC1", "Potency": "inconclusive: 35.5 µM [inhibitor, single point]"}
{"smiles": "CC(C)(C)c1cc(NC(=O)c2ccco2)no1", "Potency": "inactive"}
{"smiles": "Cc1c(Cl)cccc1NC(=O)Cn1cccc1", "Potency": "inconclusive: 14.6 µM [activator, partial curve, poor fit]"}
{"smiles": "CCNC(=O)NC(=O)COC(=O)CCCSc1nc2ccccc2s1", "Potency": "inconclusive: 7.31 µM [inhibitor, partial curve]"}
{"smiles": "Brc1ccc(CSc2nnc(-c3ccccn3)n2Cc2ccco2)cc1", "Potency": "inactive"}
{"smiles": "Cc1nc2c(c(=O)n1CCC1=CCCCC1)c1nc3ccccc3nc1n2/N=C/c1ccccc1", "Potency": "inconclusive: 23.1 µM [activator, partial curve, poor fit]"}
{"smiles": "Cc1oc(-c2ccccc2F)nc1CS(=O)(=O)CC(=O)N1CCN(Cc2ccccc2)CC1", "Potency": "inconclusive: 29.1 µM [inhibitor, single point]"}
{"smiles": "CCCCOC(=O)CSC1=C(C#N)C(c2ccc3c(c2)OCO3)CC(=O)N1", "note": "(configuration not stated)", "Potency": "inactive"}
{"smiles": "Cc1ccccc1CNc1nc(N(C)C)nc2c1cnn2C", "Potency": "inconclusive: 1.78 µM [activator, partial curve, poor fit]"}
{"smiles": "CCCOn1nnnc1-c1ccccc1", "Potency": "inconclusive: 15.8 µM [inhibitor, partial curve, poor fit]"}
{"smiles": "COc1ccccc1-n1c(SCC(=O)Nc2ccc3c(c2)OCO3)nc2c(c1=O)SCC2", "Potency": "inconclusive: 7.3 µM [inhibitor, single point]"}
{"smiles": "COc1ccc(N2CCN(C(=O)CSc3c4c(nc5ccc(Cl)cc35)CCCC4)CC2)cc1", "Potency": "inconclusive: 35.5 µM [inhibitor, single point]"}
{"smiles": "CCn1c2c(c3cc(OCC(C)C)ccc31)CCCC2=O", "Potency": "inconclusive: 20.6 µM [inhibitor, single point]"}
{"smiles": "c1ccc(N(c2ccccc2)c2nc(-n3ccnc3)nc(-n3ccnc3)n2)cc1", "Potency": "inconclusive: 14.1 µM [inhibitor, partial curve]"}
{"smiles": "COc1ccc(Nc2nc(N)nc(CN(C)C3CCCCC3)n2)cc1", "Potency": "inactive"}
{"smiles": "O=C(Cn1ncc2c3ccccc3n(Cc3ccc(F)cc3)c2c1=O)N1CCN(c2ncccn2)CC1", "Potency": "inconclusive: 23.1 µM [inhibitor, partial curve]"}
{"smiles": "CCn1nc(C)c(/C=N/NC(=O)Cn2nccc2C)c1C", "Potency": "inconclusive: 22.4 µM [activator, single point]"}
{"smiles": "COc1ccc(CNc2nc3ccccc3n2Cc2ccc(C)cc2)cc1OC", "Potency": "inconclusive: 0.326 µM [inhibitor, partial curve, poor fit]"}
{"smiles": "CCCCOc1ccc(C(=O)NCCc2sc(-c3ccc(OC)c(OC)c3)nc2C)cc1", "Potency": "inconclusive: 35.5 µM [inhibitor, single point]"}
{"smiles": "Cc1ccc(/C=N/Nc2ccc(F)cc2)s1", "Potency": "inactive"}
{"smiles": "CC(C)c1ccc(Nc2nnns2)cc1", "Potency": "inconclusive: 11.2 µM [inhibitor, single point]"}
{"smiles": "Cc1ccsc1/C=N\\NC(=O)Cn1nnc2ccccc21", "Potency": "inconclusive: 11.2 µM [inhibitor, partial curve, poor fit]"}
{"smiles": "NC(=S)Nc1cccc(Cl)c1", "Potency": "inconclusive: 0.316 µM [activator, full curve, poor fit]"}
{"smiles": "COc1ccc(CNc2ccc(-c3ccccc3OC)nn2)cc1", "Potency": "inactive"}
{"smiles": "O=C(NCc1ccc(F)cc1)C(c1ccccc1)N(C(=O)c1csnn1)C1CCCC1", "note": "(configuration not stated)", "Potency": "inconclusive: 6.31 µM [activator, single point]"}
{"smiles": "COc1ccccc1C(=O)NC(CCSC)C(=O)OC(C)C(N)=O", "note": "(configuration not stated)", "Potency": "inconclusive: 5.62 µM [activator, full curve]"}
{"smiles": "COc1cccc(CN2CCCN(CC(=O)Nc3ccc4c(c3)OCCO4)S2(=O)=O)c1", "Potency": "inactive"}
{"smiles": "CC(C)(C)SCCNC(=O)/C=C/c1cccc([N+](=O)[O-])c1", "Potency": "inactive"}
{"smiles": "Cc1nn(Cc2ccccc2)c(C)c1C(=O)OCC(=O)Nc1cc(S(C)(=O)=O)ccc1Cl", "Potency": "inconclusive: 1.78 µM [inhibitor, full curve]"}
{"smiles": "Cc1ccc(CNC(=O)Cn2c(=O)c3sccc3n(Cc3ccc([N+](=O)[O-])cc3)c2=O)cc1", "Potency": "inconclusive: 35.5 µM [inhibitor, single point]"}
{"smiles": "Cc1ccc(Cc2c(C)nc3nc(SCC(=O)NCCCN4CCCCCC4)nn3c2C)cc1", "Potency": "inactive"}
